Results deposited as PubChem BioAssay AID1224827 (NIAID, 2016)

- Screen: 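Confirm genes whose knock-down changes LPS-driven TNF promoter activity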 (follow-up of hits)
- System: RAW264.7 G9 mouse macrophage reporter clone
- Reagent: single siRNA against mouse genes, 100 nM siRNA
- Duration: siRNA for 2 days, then LPS about 16 h
- Treatment: bacterial lipopolysaccharide (LPS), 10 ng/ml, cells fixed after overnight (about 16 h) stimulation
- Measured: 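TNF promoter reporter red fluorescence in nuclei, background subtracted, normalised per plate and to non-targeting control siRNA, as z-scores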
- Reading the numbers: TNF reporter z-score, mean and TNF reporter z-score: higher = stronger Tnf promoter reporter signal; gene median z, three same-vendor siRNAs: higher = stronger Tnf reporter signal for the gene
- Hit rule: 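An siRNA is called active when its mean z-score over replicates is at least +2 or at most -2; control wells get no call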
Here is a random part of about 3,800 deposited reagents. Of all reagents, about 2,200 (57%) were called active. 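Active means a strong reporter change in either direction; calls are per siRNA, not per gene; qiagen siRNAs gave weaker effects.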 A number with no mark means an inactive call. The numbers tell different reagents against one gene apart.

gene | siRNA no. | TNF reporter z-score, mean | gene median z, three same-vendor siRNAs | TNF reporter z-score, repeat 1 | TNF reporter z-score, repeat 2
Rpl13a (ribosomal protein L13A) | 1 | 0.392 | -2 | -0.0789 | 0.862
Rpl13a (ribosomal protein L13A) | 2 | -2 | -2 | -1.6 | -2.39
Rpl13a (ribosomal protein L13A) | 3 | -2.86 (active) | -2 | -2.9 | -2.82
Rpl13a (ribosomal protein L13A) | 4 | -1.74 | -2.37 | -0.808 | -2.68
Rpl13a (ribosomal protein L13A) | 5 | -2.54 (active) | -2.37 | -2.07 | -3
Rpl13a (ribosomal protein L13A) | 6 | -2.52 (active) | -2.37 | -1.95 | -3.1
Chst14 (carbohydrate sulfotransferase 14) | 1 | 3.04 (active) | 2.33 | 3.92 | 2.16
Chst14 (carbohydrate sulfotransferase 14) | 2 | 3.31 (active) | 2.33 | 2.49 | 4.13
Chst14 (carbohydrate sulfotransferase 14) | 3 | 1.21 | 2.33 | 0.793 | 1.64
Chst14 (carbohydrate sulfotransferase 14) | 4 | -0.521 | -1.62 | 0.552 | -1.59
Chst14 (carbohydrate sulfotransferase 14) | 5 | -2.1 (active) | -1.62 | -1.65 | -2.56
Chst14 (carbohydrate sulfotransferase 14) | 6 | -2.47 (active) | -1.62 | -1.49 | -3.45
Tnfaip1 (tumor necrosis factor, alpha-induced protein 1 (endothelial)) | 1 | -3.17 (active) | -3.99 | -2.59 | -3.75
Tnfaip1 (tumor necrosis factor, alpha-induced protein 1 (endothelial)) | 2 | -3.75 (active) | -3.99 | -4.24 | -3.26
Tnfaip1 (tumor necrosis factor, alpha-induced protein 1 (endothelial)) | 3 | -5.12 (active) | -3.99 | -4.83 | -5.41
Tnfaip1 (tumor necrosis factor, alpha-induced protein 1 (endothelial)) | 4 | 3.06 (active) | -0.862 | 6.3 | -0.185
Tnfaip1 (tumor necrosis factor, alpha-induced protein 1 (endothelial)) | 5 | -0.862 | -0.862 | -0.975 | -0.748
Tnfaip1 (tumor necrosis factor, alpha-induced protein 1 (endothelial)) | 6 | -1.69 | -0.862 | -1.33 | -2.05
Idh3g (isocitrate dehydrogenase 3 (NAD+), gamma) | 1 | 0.401 | -4.37 | -0.867 | 1.67
Idh3g (isocitrate dehydrogenase 3 (NAD+), gamma) | 2 | -4.37 (active) | -4.37 | -4.48 | -4.26
Idh3g (isocitrate dehydrogenase 3 (NAD+), gamma) | 3 | -4.7 (active) | -4.37 | -4.69 | -4.7
Idh3g (isocitrate dehydrogenase 3 (NAD+), gamma) | 4 | -0.145 | -0.973 | 0.528 | -0.818
Idh3g (isocitrate dehydrogenase 3 (NAD+), gamma) | 5 | -0.114 | -0.973 | 0.9 | -1.13
Idh3g (isocitrate dehydrogenase 3 (NAD+), gamma) | 6 | -3.9 (active) | -0.973 | -5.44 | -2.36
Camk1d (calcium/calmodulin-dependent protein kinase ID) | 1 | -1.81 | -1.91 | -2.04 | -1.58
Camk1d (calcium/calmodulin-dependent protein kinase ID) | 2 | -2.36 (active) | -1.91 | -2.94 | -1.78
Camk1d (calcium/calmodulin-dependent protein kinase ID) | 3 | -2.5 (active) | -1.91 | -3.96 | -1.04
Fga (fibrinogen alpha chain) | 1 | -2.14 (active) | -3.42 | -1.84 | -2.44
Fga (fibrinogen alpha chain) | 2 | -3.62 (active) | -3.42 | -3.99 | -3.25
Fga (fibrinogen alpha chain) | 3 | -3.66 (active) | -3.42 | -3.59 | -3.73
Fga (fibrinogen alpha chain) | 4 | 2.44 (active) | 0.752 | 4.4 | 0.476
Fga (fibrinogen alpha chain) | 5 | 1.13 | 0.752 | 2.73 | -0.472
Fga (fibrinogen alpha chain) | 6 | 0.295 | 0.752 | 1.03 | -0.439
P2rx5 (purinergic receptor P2X, ligand-gated ion channel, 5) | 1 | -1.51 | -3.19 | -0.971 | -2.05
P2rx5 (purinergic receptor P2X, ligand-gated ion channel, 5) | 2 | -3.19 (active) | -3.19 | -2.62 | -3.77
P2rx5 (purinergic receptor P2X, ligand-gated ion channel, 5) | 3 | -4.31 (active) | -3.19 | -4.58 | -4.04
P2rx5 (purinergic receptor P2X, ligand-gated ion channel, 5) | 4 | 1.67 | -0.29 | 2.5 | 0.837
P2rx5 (purinergic receptor P2X, ligand-gated ion channel, 5) | 5 | -0.29 | -0.29 | 0.6 | -1.18
P2rx5 (purinergic receptor P2X, ligand-gated ion channel, 5) | 6 | -1.8 | -0.29 | -1.87 | -1.73
Lce3c (late cornified envelope 3C) | 1 | 5.17 (active) | 0.013 | 5.75 | 4.6
Lce3c (late cornified envelope 3C) | 2 | 0.013 | 0.013 | -0.532 | 0.558
Lce3c (late cornified envelope 3C) | 3 | -0.991 | 0.013 | -0.87 | -1.11
Lce3c (late cornified envelope 3C) | 4 | 3.79 (active) | -0.0253 | 7.42 | 0.162
Lce3c (late cornified envelope 3C) | 5 | 0.896 | -0.0253 | 2.85 | -1.06
Lce3c (late cornified envelope 3C) | 6 | -0.701 | -0.0253 | -0.212 | -1.19
Mrps23 (mitochondrial ribosomal protein S23) | 1 | 0.758 | -0.687 | 0.761 | 0.755
Mrps23 (mitochondrial ribosomal protein S23) | 2 | -0.687 | -0.687 | -0.919 | -0.455
Mrps23 (mitochondrial ribosomal protein S23) | 3 | -4.69 (active) | -0.687 | -4.4 | -4.98
Mrps23 (mitochondrial ribosomal protein S23) | 4 | 1.92 | -1 | 3.52 | 0.31
Mrps23 (mitochondrial ribosomal protein S23) | 5 | -1.45 | -1 | -2.25 | -0.659
Mrps23 (mitochondrial ribosomal protein S23) | 6 | -1.75 | -1 | -1.35 | -2.16
Tbx21 (T-box 21) | 1 | 3.73 (active) | 2.48 | 3.49 | 3.97
Tbx21 (T-box 21) | 2 | 2.48 (active) | 2.48 | 2.46 | 2.5
Tbx21 (T-box 21) | 3 | 2 | 2.48 | 2.45 | 1.55
Tbx21 (T-box 21) | 4 | 0.391 | -2.03 | 0.521 | 0.261
Tbx21 (T-box 21) | 5 | -2.03 (active) | -2.03 | -1.66 | -2.41
Tbx21 (T-box 21) | 6 | -3.45 (active) | -2.03 | -3.37 | -3.53

Just “TNF reporter z-score, repeat 2” (4 entries from above):
Mrps23 (mitochondrial ribosomal protein S23) #2: -0.455
Mrps23 (mitochondrial ribosomal protein S23) #3: -4.98 (active)
Mrps23 (mitochondrial ribosomal protein S23) #4: 0.31
Mrps23 (mitochondrial ribosomal protein S23) #5: -0.659
